{"source": "PubChem BioAssay AID652243 (Drosophila RNAi Screening Center, 2013)", "test": "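Fly regulators of androgen-dependent reporter output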 (primary screen)", "system": "Drosophila S2R+ cells", "reagent": "long dsRNA against Drosophila genes", "timing": "72 h (48 h, then 24 h hormone)", "treatment": "synthetic androgen R1881 at 10 nM for 24 h", "read-out": "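Per-well raw luminescence of the androgen-driven firefly reporter and of the Renilla control, two replicates each, without normalisation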", "reading the numbers": "firefly reporter light: higher = more light from androgen-responsive reporter; Renilla control light: higher = more constitutive control signal (cell number, transfection)", "rule for the call": "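Hit when the log firefly-to-Renilla ratio dropped or increased by a fixed fold versus the mean of GFP or LacZ controls across duplicate plates; lowering cut given as 1.5 and as 3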", "meaning of the calls": "active = hit: reporter lowered or raised; inactive = no hit", "note": "The deposit covers about 24,000 reagents; this is a random part of those that have a named target and a result. Of all reagents, 246 (1%) were called active. 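Plates not normalised; calls are printed but the firefly/Renilla ratio behind them is not deposited; fold cut for lowering reported inconsistently.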 Raw values are not corrected between plates. A plus sign joins genes that one reagent is predicted to hit. Not stated in the record: the amount of reagent."}
{"Gene": "snRNA:U1:21D", "amplicon": "DRSC37901", "firefly reporter light, replicate 1": 7.95e5, "firefly reporter light, replicate 2": 8.33e5, "Renilla control light, replicate 1": 1.49e6, "Renilla control light, replicate 2": 1.82e6, "activity call": "inactive"}
{"Gene": "CG10195", "amplicon": "DRSC02026", "firefly reporter light, replicate 1": 1.58e5, "firefly reporter light, replicate 2": 1.79e5, "Renilla control light, replicate 1": 2.00e6, "Renilla control light, replicate 2": 1.71e6, "activity call": "inactive"}
{"Gene": "tmod", "amplicon": "DRSC14314", "firefly reporter light, replicate 1": 1.24e5, "firefly reporter light, replicate 2": 1.00e5, "Renilla control light, replicate 1": 1.82e6, "Renilla control light, replicate 2": 2.49e6, "activity call": "inactive"}
{"Gene": "tmod", "amplicon": "DRSC15076", "firefly reporter light, replicate 1": 1.37e5, "firefly reporter light, replicate 2": 90737, "Renilla control light, replicate 1": 1.88e6, "Renilla control light, replicate 2": 1.85e6, "activity call": "inactive"}
{"Gene": "tmod", "amplicon": "DRSC17062", "firefly reporter light, replicate 1": 60227, "firefly reporter light, replicate 2": 76538, "Renilla control light, replicate 1": 6.69e5, "Renilla control light, replicate 2": 5.08e5, "activity call": "inactive"}
{"Gene": "tmod", "amplicon": "DRSC25448", "firefly reporter light, replicate 1": 2.52e5, "firefly reporter light, replicate 2": 2.64e5, "Renilla control light, replicate 1": 6.11e5, "Renilla control light, replicate 2": 5.34e5, "activity call": "inactive"}
{"Gene": "Klp67A + CG34456", "amplicon": "DRSC10420", "firefly reporter light, replicate 1": 1.46e5, "firefly reporter light, replicate 2": 1.37e5, "Renilla control light, replicate 1": 1.60e6, "Renilla control light, replicate 2": 1.06e6, "activity call": "inactive"}
{"Gene": "tyn", "amplicon": "DRSC20652", "firefly reporter light, replicate 1": 1.58e5, "firefly reporter light, replicate 2": 1.62e5, "Renilla control light, replicate 1": 5.49e5, "Renilla control light, replicate 2": 4.40e5, "activity call": "inactive"}
{"Gene": "CG15098", "amplicon": "DRSC06527", "firefly reporter light, replicate 1": 1.35e5, "firefly reporter light, replicate 2": 1.80e5, "Renilla control light, replicate 1": 2.01e6, "Renilla control light, replicate 2": 2.04e6, "activity call": "inactive"}
{"Gene": "CG15098", "amplicon": "DRSC29966", "firefly reporter light, replicate 1": 8.61e5, "firefly reporter light, replicate 2": 7.52e5, "Renilla control light, replicate 1": 9.43e5, "Renilla control light, replicate 2": 9.86e5, "activity call": "inactive"}
{"Gene": "CG15296", "amplicon": "DRSC17983", "firefly reporter light, replicate 1": 4.65e5, "firefly reporter light, replicate 2": 3.22e5, "Renilla control light, replicate 1": 4.06e6, "Renilla control light, replicate 2": 3.28e6, "activity call": "inactive"}
{"Gene": "CG15296", "amplicon": "DRSC26051", "firefly reporter light, replicate 1": 2.13e5, "firefly reporter light, replicate 2": 3.67e5, "Renilla control light, replicate 1": 8.70e5, "Renilla control light, replicate 2": 9.98e5, "activity call": "inactive"}
{"Gene": "mTerf3", "amplicon": "DRSC11759", "firefly reporter light, replicate 1": 66270, "firefly reporter light, replicate 2": 68595, "Renilla control light, replicate 1": 5.46e5, "Renilla control light, replicate 2": 4.62e5, "activity call": "inactive"}
{"Gene": "parvin", "amplicon": "DRSC19468", "firefly reporter light, replicate 1": 1.08e5, "firefly reporter light, replicate 2": 64744, "Renilla control light, replicate 1": 7.07e5, "Renilla control light, replicate 2": 2.65e5, "activity call": "inactive"}
{"Gene": "parvin", "amplicon": "DRSC28956", "firefly reporter light, replicate 1": 3.53e5, "firefly reporter light, replicate 2": 3.62e5, "Renilla control light, replicate 1": 1.21e6, "Renilla control light, replicate 2": 1.02e6, "activity call": "inactive"}
{"Gene": "Sec3", "amplicon": "DRSC10384", "firefly reporter light, replicate 1": 85322, "firefly reporter light, replicate 2": 83435, "Renilla control light, replicate 1": 5.36e5, "Renilla control light, replicate 2": 8.01e5, "activity call": "inactive"}
{"Gene": "VepD", "amplicon": "DRSC22318", "firefly reporter light, replicate 1": 9.37e5, "firefly reporter light, replicate 2": 1.07e6, "Renilla control light, replicate 1": 1.76e6, "Renilla control light, replicate 2": 1.39e6, "activity call": "inactive"}
{"Gene": "VepD", "amplicon": "DRSC27653", "firefly reporter light, replicate 1": 4.96e5, "firefly reporter light, replicate 2": 3.85e5, "Renilla control light, replicate 1": 8.09e5, "Renilla control light, replicate 2": 9.26e5, "activity call": "inactive"}
{"Gene": "hpRNA:CR32207", "amplicon": "DRSC09616", "firefly reporter light, replicate 1": 1.44e5, "firefly reporter light, replicate 2": 1.43e5, "Renilla control light, replicate 1": 3.47e5, "Renilla control light, replicate 2": 3.30e5, "activity call": "inactive"}
{"Gene": "Cerk", "amplicon": "DRSC12285", "firefly reporter light, replicate 1": 28849, "firefly reporter light, replicate 2": 31358, "Renilla control light, replicate 1": 3.12e5, "Renilla control light, replicate 2": 3.52e5, "activity call": "active"}
{"Gene": "Cerk", "amplicon": "DRSC36910", "activity call": "inactive"}
{"Gene": "Cerk", "amplicon": "DRSC36911", "activity call": "inactive"}

Active calls, of those listed so far:
{"Gene": "Cerk", "amplicon": "DRSC12285", "firefly reporter light, replicate 1": 28849, "firefly reporter light, replicate 2": 31358, "Renilla control light, replicate 1": 3.12e5, "Renilla control light, replicate 2": 3.52e5, "activity call": "active"}
